Laboratory results reported in patent US20170342451A1, “BIOSYNTHESIS OF PACLITAXEL INTERMEDIATE” (Board of Trustees of Michigan State University, priority 2012, published 2017).
At least one compound was matched to its structure with a doubt left.

Columns and labels:
Phenylacetate-CL = conditions: cited from earlier work
TycA [1] = molecular target: T1, TycA (Brevibacillus parabrevis, UniProt P09095); assay: CoA ligase reaction kinetics, TycA; type: biochemical, Brevibacillus brevis; conditions: CoA with (S)-α-Phe as cosubstrate
T1 construct: this wild-type tycA cDNA encoding the A-, T-, and E-domains was subcloned into a pSU18 vector; made in house; host or cells: Escherichia coli BL21(DE3)
T1 sequence (P09095 with tags, fused parts or gaps): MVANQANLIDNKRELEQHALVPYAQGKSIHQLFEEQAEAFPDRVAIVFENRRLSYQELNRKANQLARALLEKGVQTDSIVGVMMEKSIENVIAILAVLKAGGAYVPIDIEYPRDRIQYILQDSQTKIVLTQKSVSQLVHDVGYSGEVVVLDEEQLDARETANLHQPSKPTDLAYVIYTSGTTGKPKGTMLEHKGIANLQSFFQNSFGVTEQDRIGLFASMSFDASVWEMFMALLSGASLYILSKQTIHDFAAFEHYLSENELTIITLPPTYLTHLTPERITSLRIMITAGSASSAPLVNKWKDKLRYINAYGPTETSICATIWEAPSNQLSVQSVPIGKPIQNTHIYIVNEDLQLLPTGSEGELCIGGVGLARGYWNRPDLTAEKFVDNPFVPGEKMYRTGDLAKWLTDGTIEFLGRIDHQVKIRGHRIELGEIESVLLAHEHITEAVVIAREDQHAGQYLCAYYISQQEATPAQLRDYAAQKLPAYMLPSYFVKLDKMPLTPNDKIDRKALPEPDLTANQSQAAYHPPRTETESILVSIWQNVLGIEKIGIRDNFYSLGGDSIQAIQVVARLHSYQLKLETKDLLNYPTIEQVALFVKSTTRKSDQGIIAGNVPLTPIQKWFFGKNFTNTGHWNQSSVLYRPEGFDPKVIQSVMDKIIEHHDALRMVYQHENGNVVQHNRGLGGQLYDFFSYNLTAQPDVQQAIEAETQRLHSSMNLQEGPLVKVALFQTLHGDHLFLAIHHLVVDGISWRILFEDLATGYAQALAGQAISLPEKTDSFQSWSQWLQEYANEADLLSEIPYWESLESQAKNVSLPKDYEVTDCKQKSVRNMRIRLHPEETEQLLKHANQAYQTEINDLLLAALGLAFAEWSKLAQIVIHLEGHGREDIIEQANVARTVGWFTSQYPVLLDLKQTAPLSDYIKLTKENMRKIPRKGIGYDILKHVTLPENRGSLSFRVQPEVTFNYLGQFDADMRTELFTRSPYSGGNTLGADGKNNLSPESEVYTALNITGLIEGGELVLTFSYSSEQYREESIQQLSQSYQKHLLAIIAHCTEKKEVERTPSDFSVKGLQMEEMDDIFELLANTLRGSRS
Protocol: (§1) Under steady-state conditions, (S)-α-phenylalanine, (R)-β-phenylalanine, and (2R,3S)-phenylisoserine at 5, 10, 20, 40, 80, 160, 250, 500, 1000 and 2000 μM were separately incubated with TycA or TycA-S563A (20 μg) for 30 min. At the end of each reaction, and prior to mass spectrometry analysis, acetyl CoA (1 μM) was added as the internal standard to each sample to correct for variations of the analyte. The products of the enzyme-catalyzed reaction were quantified by a liquid chromatography multiple reaction monitoring (LC-ESI-MRM) mass spectrometry technique (Anderson & Hunter, Mol. Cell. Proteomics 5: 573-588 (2006)) on the Quattro-Premier Electro-Spray Mass Spectrometer coupled with Acquity® UPLC system fitted with a C18 Ascentis Express column (2.5×50 mm, 2.7 μm) at 30° C. […]
(§2) The KM values of TycA and TycA-S563A for CoA were assessed by incubating each enzyme separately with (S)-α-phenylalanine (1 mM), MgCl2 (3 mM), ATP (1 mM), and CoA at 0.05, 0.1, 0.2, 0.4, 0.8, 1.6, 3.2, 6.4, 12.8 and 25.6 mM at 31° C. for 20 min. […] The products of the enzyme-catalyzed reaction were quantified by LC-ESI-MRM, and the monitored fragment ion (m/z 408) derived from the CoA moiety of the thioester analytes in the effluent was quantified identically to the procedure described earlier herein.

TycA [2] = molecular target: T1, TycA; assay: N-acetylcysteamine ligase reaction kinetics, TycA; type: biochemical, Brevibacillus brevis; conditions: TycA with NAC; NAC with (S)-α-Phe as cosubstrate
Protocol: (§3) Substrates (S)-α-phenylalanine, (R)-β-phenylalanine, and (2R,3S)-phenylisoserine (each at 1 mM) were separately incubated with TycA or TycA-S563A (20 μg) in the presence of N-acetylcysteamine (NAC; 1 mM), ATP (1 mM), and Mg^2+ (3 mM) to establish steady-state conditions with respect to protein concentration and time at 31° C. Under steady-state conditions, either (S)-phenylalanine, (R)-β-phenylalanine, or (2R,3S)-phenylisoserine at 5, 10, 20, 40, 80, 160, 250, 500, 1000 and 2000 μM was separately incubated with TycA or TycA-S563A (20 μg), ATP (1 mM), Mg^2+ (3 mM), and N-acetylcysteamine (1 mM, ‘NAC’) in duplicate, single stopped-time ([…]) 100 μL assays. The reactions were quenched by acidification to a pH of about 2 (10% formic acid in distilled water). […] The samples were analyzed on a Quattro-Premier Electro-Spray Mass Spectrometer coupled with Acquity® UPLC system fitted with a C18 Ascentis Express column (2.5×50 mm, 2.7 μm) at 30° C. […] In brief, the effluent from the chromatography column was directed to the Quattro Premier ESI mass spectrometer, in MRM scan mode, to quantify the biosynthetic acyl SNAC products. […] A standard curve was used to convert the peak area under the curve of the monitored fragment ion to concentration for each biosynthetic phenylpropionyl SNAC. […]

TycA-S563A [3] = molecular target: T2, TycA-S563A (Brevibacillus parabrevis, UniProt P09095, S563A); conditions: CoA with (S)-α-Phe as cosubstrate
Protocol: as §1, §2

TycA-S563A [4] = molecular target: T2, TycA-S563A; conditions: TycA-S563A with NAC; NAC with (S)-α-Phe as cosubstrate
Protocol: as §3

| Structure (SMILES) | Km (Phenylacetate-CL) [mM] | kcat (Phenylacetate-CL) [s⁻¹] | kcat/KM (Phenylacetate-CL) [M⁻¹ s⁻¹] | kcat^CoA/KM (TycA [1]) [M⁻¹ s⁻¹] | kcat^NAC/KM (TycA [2]) [M⁻¹ s⁻¹] | kcat^CoA/KM (TycA-S563A [3]) [M⁻¹ s⁻¹] | kcat^NAC/KM (TycA-S563A [4]) [M⁻¹ s⁻¹] |
| --- | --- | --- | --- | --- | --- | --- | --- |
| O=C(O)Cc1ccccc1 [phenylacetate] | 6.1 | 1.4 | 230 | – | – | – | – |
| N[C@@H](c1ccccc1)[C@@H](O)C(=O)O [(2R,3S)-PheIso, (2R,3S)-phenylisoserine] | – | – | – | 46.7 ± 8.7 | 24.0 ± 10.3 | 37.5 ± 2.1 | 10.1 ± 1.8 |
